Data reported in patent US6969590B2, “Use of a polypeptide for treatment of pruritus in animals” (Zengen, Inc., priority 2001, dated 2005).
At least one compound was matched to its structure with a doubt left.

Test system: C. albicans
Experiment: C. albicans colony forming units (candidacidal activity)
Format: cell-based
Details: 2 hours at 37° C., vs. control
Method: C. albicans (1×10^6/ml in HBSS) was incubated in the presence or absence or α-MSH (1-13) or α-MSH (11-13) at concentrations in the range of 10^−15 M to 10^−6 M for 2 hours at 37° C. Cells were then washed in cold distilled water and diluted with HBSS to a concentration of 100 organisms/ml. One-ml aliquots were dispensed on blood agar plates and incubated for 48 hours at 37° C. Organism viability was estimated from the number of colonies formed. In subsequent experiments using familiar procedures we compared activity of α-MSH (4-10), α-MSH (6-13), α-MSH (11-13), ACTH (1-39), (18-39) and fluconazole, the latter an established antifungal agent. Melanocortin peptides and fluconazole were tested in concentrations of 10^−6 M to 10^−4 M. There were at least six replicates for each concentration of peptide.

C=C[C@@]1(C)CC(=O)[C@]2(O)[C@@]3(C)[C@@H](O)CCC(C)(C)[C@@H]3[C@H](O)[C@H](OC(C)=O)[C@@]2(C)O1 [forskolin, reference compound]
effect on C. albicans colony forming units (CFU): inhibitory effect
